# Measured values as given in PubChem BioAssay AID1439 (NMMLSC, 2008).
# Amino acid sequences for entries named in this document (tags omitted).
# UniProt P09471, whole entry, looked up: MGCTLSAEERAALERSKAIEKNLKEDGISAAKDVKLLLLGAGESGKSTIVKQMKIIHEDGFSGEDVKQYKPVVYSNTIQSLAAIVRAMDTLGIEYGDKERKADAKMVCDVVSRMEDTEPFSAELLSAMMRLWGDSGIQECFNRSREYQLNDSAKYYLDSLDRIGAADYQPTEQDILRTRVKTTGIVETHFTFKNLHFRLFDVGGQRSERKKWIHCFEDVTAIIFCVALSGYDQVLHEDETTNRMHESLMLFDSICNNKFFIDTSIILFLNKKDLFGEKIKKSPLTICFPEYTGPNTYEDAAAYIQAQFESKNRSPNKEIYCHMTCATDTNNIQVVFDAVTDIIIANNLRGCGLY
# The campaign covered roughly 220,000 compounds. About 770 (0.35%) were called active. Inconclusive means that the source gave no clear call. Such entries were picked first, then a sample of the others. Rule as the data show it: active = binding response below about 49% or above about 150%; inconclusive = no clear call, values can overlap the other calls; inactive = in between.
# Molecular target: Guanine nucleotide-binding protein G(o) subunit alpha (Homo sapiens) (UniProt P09471)
# Assay: RGS7-Galphao binding modulators, primary screen, biochemical, multiplexed bead flow cytometry (AID 1439);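 also: fluorescent Galphao held in activated GDP-AlF4 state binding bead-coupled RGS7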
# Conditions: at 10 µM, actives lie on both sides
row,SMILES,binding response (% of control)
1,CN(C)c1cccc(C(=O)OCC(=O)Nc2nccs2)c1,inactive: 100%
2,CCn1nc(C)c(Br)c1C(=O)Sc1ccccc1Cl,inconclusive: 90.5%
3,Cc1noc(C)c1C(=O)N1CCN(S(=O)(=O)c2cccc(Cl)c2Cl)CC1,inconclusive: 76.7%
4,O=[N+]([O-])c1ccc(Sc2ccccc2)nc1,inactive: 98%
5,CCNC(=O)c1c(O)c2c([nH]c1=O)CCCC2,inconclusive: 118%
6,O=C(N/C(=C\c1ccc(-c2ccccc2)o1)C(=O)N1CCOCC1)c1ccccc1,inactive: 105%
7,COc1ccc2[nH]c(C(=O)N(C)c3ccc(F)cc3F)cc2c1,inconclusive: 104%
8,CC1CCN(CC(CS(=O)(=O)c2ccc([N+](=O)[O-])cc2)N2CCC(C)CC2)CC1 (configuration not stated),inconclusive: 37.7%
9,COc1ccccc1C(O)P(=O)(OC(C)C)c1ccc(N(C)C)cc1 (configuration not stated),inactive: 101%
10,COc1ccc(CCNC(=O)COc2ccc(C)nc2[N+](=O)[O-])cc1,inconclusive: 93%
11,COCCNC(=O)/C(C#N)=C/C=C/c1ccccc1,inconclusive: 77.8%
12,Cc1cccc(NC(=O)C(=O)N/N=C/c2ccncc2)c1,inconclusive: 126%
13,Cc1c(NC(=O)c2coc(=O)c(Br)c2)c(=O)n(-c2ccccc2)n1C,inactive: 101%
14,CO/N=C\CC(=O)Nc1ccc(Oc2ccccc2)cc1,inconclusive: 114%
15,O=C(NCc1ccccn1)c1cc(-c2ccc(Cl)cc2)oc1C(F)(F)F,inconclusive: 96%
16,COc1ccc(CNS(=O)(=O)c2ccccc2Br)cc1,inconclusive: 86.5%
17,COc1ccc(/C=C2\CCCc3c2nc2ccccc2c3C(=O)OCC(=O)c2c(N)n(C)c(=O)n(C)c2=O)cc1,inactive: 102%
18,Nc1cc([N+](=O)[O-])ccc1Nc1ccc(O)cc1,inconclusive: 61.5%
19,CC(=O)c1ccc(NC(=S)NCCc2cccc(Cl)c2)cc1,inconclusive: 97.1%
20,O=C(N/N=C/c1sc(=O)[nH]c1-[n+]1ccccc1)c1ccccc1[O-],inconclusive: 166%
21,CC1CCCCN1CCCNC(=O)c1cc(Br)c(Br)[nH]1 (configuration not stated),inactive: 98.3%
22,CC(=O)NS(=O)(=O)c1ccc(NC(=O)CC(C)c2ccccc2)cc1 (configuration not stated),inconclusive: 113%
23,Cc1nnsc1-c1nnc(SCC(=O)c2ccc(F)cc2)n1C1CC1,inconclusive: 107%

row,SMILES,binding response (% of control)
1,CCCOc1c(Br)cc(C(N)=O)cc1OCC,inconclusive: 103%
2,Cn1nc(C(F)(F)F)c(-c2cccc(C(F)(F)F)c2)c1NC(=O)c1nccnc1C(=O)O,inconclusive: 131%
3,CCOC(=O)c1c(C)n(-c2ccc(C)cc2)c2ccc(OCC(O)CN3CCN(C)CC3)cc12 (configuration not stated),inactive: 98%
4,COc1ccc2nc3cc(Cl)ccc3c(Nc3cc(C(C)C)c(O)cc3C)c2c1,inconclusive: 131%
5,CN1CCC(N(C)CC(=O)Nc2ccc3c(c2)OC(F)(F)O3)CC1,inconclusive: 213%
6,S=C(NCCc1ccccc1)Nc1ccc(Br)cn1,inactive: 107%
7,Cc1ccc(-c2nnc(-c3ccc4c(c3)OCO4)o2)cc1,inconclusive: 94.3%
8,Cc1cc(Br)ccc1-n1[nH]c(C)c(C=Nc2cccc3nsnc23)c1=O,inactive: 105%
9,CC1CCN(C(=O)COc2ccc(Nc3ccccc3)cc2)CC1,inconclusive: 61.2%
10,CN1C(=O)c2ccccc2Sc2ccc(NC(=O)N3CCCC3)cc21,inactive: 102%
11,CCc1ccc(CN(C)C(=O)c2cc(COc3c(F)cccc3F)on2)cc1,inconclusive: 108%
12,CC(=O)Nc1nnc(CSCc2ccccc2F)s1,inconclusive: 53.9%
13,Cc1cnc(SCc2ccc(Cl)cc2Cl)[nH]c1=O,inconclusive: 112%
14,O=C(Oc1ccccc1)c1ccc2nsnc2c1,inactive: 98.5%
15,COc1cc(N2C(=O)CC3(CCCC3)CC2=O)cc(OC)c1OC,inconclusive: 93.8%
16,O=c1c2ccccc2nnn1Cc1ccccc1,inconclusive: 105%
17,CC(C)[N+]1=C2C=CC=CC=C2SC12C([N+](=O)[O-])=CC(=[N+]([O-])[O-])C=C2[N+](=O)[O-] (configuration not stated),inconclusive: 112%
18,Cc1cccc(C(=O)OCC(=O)NC(C)CCc2ccccc2)c1 (configuration not stated),inconclusive: 101%
19,COC(=O)C1(NC(=O)NC2CCCCC2)CCCCC1,inconclusive: 130%
20,Cc1cc(-c2nc(C)c(C(=O)NN)s2)no1,inconclusive: 61.6%
21,Cc1cccc(Nc2nc(N)nc(CCl)n2)c1,inconclusive: 124%
22,Oc1[nH]c2ccccc2c1C=Nc1ccccc1,inconclusive: 110%
23,COCCNC(=O)C(c1ccc(F)cc1)N(C(=O)CCC(=O)Nc1nccs1)c1cccc(C)c1 (configuration not stated),inactive: 105%

row,SMILES,binding response (% of control)
1,CN1C(C(=O)NCCc2cccs2)CC2Cn3c(nc4cc(Cl)c(Cl)cc43)C21 (configuration not stated),inconclusive: 111%
2,O=C(O)COc1ccc(Br)cc1CP(=O)(c1ccccc1)c1ccccc1,inconclusive: 114%
3,O=C(O)COc1ccc2c(c1)O/C(=C\c1cccs1)C2=O,inconclusive: 101%
4,CC(C)OP(=O)(c1ccc(N(C)C)cc1)C(O)c1ccccc1F (configuration not stated),inactive: 90.6%
5,Cc1ccc(S(=O)(=O)N2CCCCC2)cc1NC(=S)NC(=O)c1ccco1,inconclusive: 40.5%
6,CC(C)=CC(=O)O[C@H]1[C@@H]2[C@H](C)C(=O)O[C@@H]2C[C@@H](C)[C@@H]2[C@@H](O)CC(=O)[C@]21C,inconclusive: 83%
7,O=C1c2ccccc2-c2nc3ccccc3n21,inconclusive: 93.2%
8,CC(C)(C)c1ccc(C(=O)Cn2nc(C(=O)O)c3ccccc3c2=O)cc1,inconclusive: 115%
9,CC(C)Cc1nc2sc3c(SCC(N)=O)ncnc3c2c2c1CCC2,inconclusive: -20.5%
10,CC(=O)C1=C(C)OC(N)=C(C#N)C1c1cccc2ccccc12 (configuration not stated),inconclusive: 82.2%
11,O=C1COc2ccc(C(=O)COC(=O)Cn3cnc4ccccc43)cc2N1,inactive: 107%
12,N/C(=N\N=C\c1ccc(O)c(O)c1)c1nonc1N,inconclusive: 100%
13,Cc1cc(/C=C2\SC(=S)NC2=O)c(C)n1-c1ccccc1,inconclusive: 29.9%
14,O=C(NC(=S)Nc1ccc(N2CCN(C(=O)c3ccccc3)CC2)cc1)c1cccs1,inconclusive: 109%
15,O=C(Nc1ccccc1-c1ccccc1)C(c1ccccc1)c1ccccc1,inactive: 96.3%
16,COCCNc1nnnc2c1sc1nc(N3CCOCC3)c3c(c12)CCCC3,inactive: 98.6%
17,CCOCC(O)CNC(=O)c1ccc(OC2CCN(C(=O)c3cccnc3)CC2)cc1 (configuration not stated),inconclusive: -1.73%
18,O=C(CCN1C(=O)c2ccccc2S1(=O)=O)Nc1ccccc1,inconclusive: 45.3%
19,COc1ccc(CNC(=O)c2ccc(Br)cc2)cc1,inactive: 101%
20,COc1ccc([C@@H]2C[C@@H](c3ccccc3)Oc3cc(C)cc(C)c32)cc1,inconclusive: 81%
21,CCN1C(=O)C2(C(C(=O)c3cc4ccccc4o3)=C(O)C(=O)N2CCCN(C)C)c2ccccc21 (configuration not stated),inconclusive: 114%
22,O=C(CC1SC(=Nc2ccc(O)cc2)NC1=O)Nc1ccccc1 (configuration not stated),inconclusive: 104%
23,CCOC(=O)c1ccccc1NC(=O)Cn1cnc2c1c(=O)n(C)c(=O)n2C,active: -8.2%

row,SMILES,binding response (% of control)
1,CN1c2ccc(Cl)cc2C(=O)NC1C1CC=CCC1 (configuration not stated),inconclusive: 88.9%
2,NC(=O)Cn1nnc(-c2ccccc2NC(=O)c2cnccn2)n1,inactive: 99.8%
3,Cc1ccc(C)c(N2C(=N)S/C(=C\c3ccc(-c4ccccc4C(=O)O)o3)C2=O)c1,inconclusive: 96.1%
4,Cn1c(CO)cnc1-c1ccccc1,inconclusive: -339%
5,CCCCN(C)Cc1cc(=O)oc2cc3c(cc12)CCCC3,inconclusive: -89.2%
6,O=c1c2cc(-c3ccccc3)sc2nc2n1N=C(c1cccs1)CS2,inconclusive: 55.6%
7,COc1ccc(C(=O)C(Cc2cc(C(C)=O)ccc2OC)N2CCCC2)cc1 (configuration not stated),inconclusive: 111%
8,Oc1c(Cl)cc(Cl)cc1/C=C/c1ccc2cccc(O)c2n1,inconclusive: 114%
9,COc1ccc2nc3ccccc3nc2c1NC(=O)c1ccc(Cl)cc1Cl,inactive: 103%
10,O=C(CSc1nnc(-c2cccnc2)s1)Nc1ccc(C(=O)O)cc1,inactive: 100%
11,OC(COc1ccc2c(c1)OCO2)CN1CCCCC1 (configuration not stated),inconclusive: 93.4%
12,CN(C)C=Nc1ncc2c([nH]c3ccccc32)c1C#N,inactive: 100%
13,CCC(CC)=N/N=C/c1c(O)n(CC)c2cc(C3=NNC(=O)CC3)ccc12,inactive: 77%
14,CCN(CC)C(=O)C(=O)N/N=C/c1ccc(F)cc1,inactive: 101%
15,O=C1C2CC=CCC2C(=O)N1c1ccc(NCCc2ccc(O)cc2)c([N+](=O)[O-])c1 (configuration not stated),inactive: 102%
16,COc1nc(NC(C)C)nc(N(C#N)CN2C(=O)c3ccccc3S2(=O)=O)n1,inconclusive: 94%
17,O=C(O/N=C1/CCCc2occc21)c1ccc(Cl)cc1Cl,inconclusive: 97.8%
18,O=C1CC(N2CCN(c3ccc(F)cc3)CC2)C(=O)N1c1ccc2c(c1)OCO2 (configuration not stated),inactive: 99.5%
19,O=Cc1cn(CC(=O)N2CCCCCC2)c2ccccc12,inconclusive: 98.1%
20,CCCOC(=O)c1cc(NC(=O)/C=C/c2ccccc2)ccc1O,inactive: 97.9%
21,CCOc1ccc(C(CC(=O)O)NC(=O)COc2ccccc2OC)cc1OC (configuration not stated),inactive: 100%
22,CCc1ccc(Nc2n[n+](C)c(-c3ccc(C(=O)O)cc3)s2)cc1,inconclusive: 64.6%
23,Cn1c(N)c(Sc2ccc(F)cc2)c(=O)n(C)c1=O,inactive: 102%

# Given bar-delimited: 25 of the compounds above.
row | SMILES | binding response (% of control)
20 | COc1ccc([C@@H]2C[C@@H](c3ccccc3)Oc3cc(C)cc(C)c32)cc1 | inconclusive: 81%
21 | CCN1C(=O)C2(C(C(=O)c3cc4ccccc4o3)=C(O)C(=O)N2CCCN(C)C)c2ccccc21 (configuration not stated) | inconclusive: 114%
22 | O=C(CC1SC(=Nc2ccc(O)cc2)NC1=O)Nc1ccccc1 (configuration not stated) | inconclusive: 104%
23 | CCOC(=O)c1ccccc1NC(=O)Cn1cnc2c1c(=O)n(C)c(=O)n2C | active: -8.2%
1 | CN1c2ccc(Cl)cc2C(=O)NC1C1CC=CCC1 (configuration not stated) | inconclusive: 88.9%
2 | NC(=O)Cn1nnc(-c2ccccc2NC(=O)c2cnccn2)n1 | inactive: 99.8%
3 | Cc1ccc(C)c(N2C(=N)S/C(=C\c3ccc(-c4ccccc4C(=O)O)o3)C2=O)c1 | inconclusive: 96.1%
4 | Cn1c(CO)cnc1-c1ccccc1 | inconclusive: -339%
5 | CCCCN(C)Cc1cc(=O)oc2cc3c(cc12)CCCC3 | inconclusive: -89.2%
6 | O=c1c2cc(-c3ccccc3)sc2nc2n1N=C(c1cccs1)CS2 | inconclusive: 55.6%
7 | COc1ccc(C(=O)C(Cc2cc(C(C)=O)ccc2OC)N2CCCC2)cc1 (configuration not stated) | inconclusive: 111%
8 | Oc1c(Cl)cc(Cl)cc1/C=C/c1ccc2cccc(O)c2n1 | inconclusive: 114%
9 | COc1ccc2nc3ccccc3nc2c1NC(=O)c1ccc(Cl)cc1Cl | inactive: 103%
10 | O=C(CSc1nnc(-c2cccnc2)s1)Nc1ccc(C(=O)O)cc1 | inactive: 100%
11 | OC(COc1ccc2c(c1)OCO2)CN1CCCCC1 (configuration not stated) | inconclusive: 93.4%
12 | CN(C)C=Nc1ncc2c([nH]c3ccccc32)c1C#N | inactive: 100%
13 | CCC(CC)=N/N=C/c1c(O)n(CC)c2cc(C3=NNC(=O)CC3)ccc12 | inactive: 77%
14 | CCN(CC)C(=O)C(=O)N/N=C/c1ccc(F)cc1 | inactive: 101%
15 | O=C1C2CC=CCC2C(=O)N1c1ccc(NCCc2ccc(O)cc2)c([N+](=O)[O-])c1 (configuration not stated) | inactive: 102%
16 | COc1nc(NC(C)C)nc(N(C#N)CN2C(=O)c3ccccc3S2(=O)=O)n1 | inconclusive: 94%
17 | O=C(O/N=C1/CCCc2occc21)c1ccc(Cl)cc1Cl | inconclusive: 97.8%
18 | O=C1CC(N2CCN(c3ccc(F)cc3)CC2)C(=O)N1c1ccc2c(c1)OCO2 (configuration not stated) | inactive: 99.5%
19 | O=Cc1cn(CC(=O)N2CCCCCC2)c2ccccc12 | inconclusive: 98.1%
20 | CCCOC(=O)c1cc(NC(=O)/C=C/c2ccccc2)ccc1O | inactive: 97.9%
21 | CCOc1ccc(C(CC(=O)O)NC(=O)COc2ccccc2OC)cc1OC (configuration not stated) | inactive: 100%
